Test results: paper PMC12097129

By UniProt entry, the sequences of proteins in these tests, tags left out. Where a name states a change or a piece, a line headed by the entry shows the natural chain unless it says otherwise.
UniProt A2A484: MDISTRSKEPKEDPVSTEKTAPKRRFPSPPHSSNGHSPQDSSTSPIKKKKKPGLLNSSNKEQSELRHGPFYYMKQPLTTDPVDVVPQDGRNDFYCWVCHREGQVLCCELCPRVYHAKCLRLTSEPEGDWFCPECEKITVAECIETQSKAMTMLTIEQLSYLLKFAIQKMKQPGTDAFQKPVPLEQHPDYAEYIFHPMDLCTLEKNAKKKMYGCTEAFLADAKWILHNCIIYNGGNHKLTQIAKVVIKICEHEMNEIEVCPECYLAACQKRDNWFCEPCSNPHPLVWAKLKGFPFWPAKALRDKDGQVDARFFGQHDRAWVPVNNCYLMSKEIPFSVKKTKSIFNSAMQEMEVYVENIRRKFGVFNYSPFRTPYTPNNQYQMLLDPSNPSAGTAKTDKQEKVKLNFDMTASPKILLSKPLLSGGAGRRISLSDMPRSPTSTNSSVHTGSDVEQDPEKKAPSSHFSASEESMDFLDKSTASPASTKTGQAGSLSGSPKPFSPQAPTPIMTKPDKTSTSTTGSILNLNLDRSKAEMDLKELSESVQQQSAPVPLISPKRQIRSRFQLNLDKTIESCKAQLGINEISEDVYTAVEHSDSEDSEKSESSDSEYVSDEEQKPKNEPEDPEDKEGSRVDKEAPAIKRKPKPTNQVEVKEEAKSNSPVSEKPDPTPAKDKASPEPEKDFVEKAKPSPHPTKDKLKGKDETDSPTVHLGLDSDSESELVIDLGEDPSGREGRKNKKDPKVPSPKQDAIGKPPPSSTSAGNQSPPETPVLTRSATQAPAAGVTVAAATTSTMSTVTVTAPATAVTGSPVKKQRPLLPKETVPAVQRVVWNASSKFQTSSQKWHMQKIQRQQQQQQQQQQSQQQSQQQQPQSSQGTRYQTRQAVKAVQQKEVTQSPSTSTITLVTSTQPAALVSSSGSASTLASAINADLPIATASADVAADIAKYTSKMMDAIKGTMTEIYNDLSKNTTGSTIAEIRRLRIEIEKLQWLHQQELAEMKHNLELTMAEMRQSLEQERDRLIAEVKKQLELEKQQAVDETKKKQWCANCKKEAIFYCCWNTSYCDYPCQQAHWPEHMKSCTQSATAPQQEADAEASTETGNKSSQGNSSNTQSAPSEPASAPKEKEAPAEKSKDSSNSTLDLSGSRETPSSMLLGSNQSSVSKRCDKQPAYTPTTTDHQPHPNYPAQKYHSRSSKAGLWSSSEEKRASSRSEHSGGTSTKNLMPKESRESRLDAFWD
UniProt Q80U70: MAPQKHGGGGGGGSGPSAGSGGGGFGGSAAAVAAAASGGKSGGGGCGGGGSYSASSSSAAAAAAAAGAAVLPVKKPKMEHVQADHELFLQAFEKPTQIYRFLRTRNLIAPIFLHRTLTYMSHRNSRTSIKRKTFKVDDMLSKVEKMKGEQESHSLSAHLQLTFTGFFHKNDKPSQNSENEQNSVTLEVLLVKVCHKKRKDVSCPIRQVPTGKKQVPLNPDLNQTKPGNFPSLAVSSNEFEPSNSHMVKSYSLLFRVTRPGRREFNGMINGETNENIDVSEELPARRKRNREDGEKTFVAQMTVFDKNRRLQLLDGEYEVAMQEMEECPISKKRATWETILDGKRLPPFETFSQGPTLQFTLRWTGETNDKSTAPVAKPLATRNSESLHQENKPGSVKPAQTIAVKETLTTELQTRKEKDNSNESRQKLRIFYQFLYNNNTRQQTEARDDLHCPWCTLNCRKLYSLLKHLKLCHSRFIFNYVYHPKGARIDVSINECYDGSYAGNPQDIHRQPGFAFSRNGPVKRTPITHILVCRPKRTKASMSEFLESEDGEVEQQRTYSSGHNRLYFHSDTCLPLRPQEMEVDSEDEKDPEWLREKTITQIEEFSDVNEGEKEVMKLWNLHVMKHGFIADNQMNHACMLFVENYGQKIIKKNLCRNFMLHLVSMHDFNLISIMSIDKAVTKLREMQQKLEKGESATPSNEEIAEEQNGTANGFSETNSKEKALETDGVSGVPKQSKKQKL
UniProt Q921E6: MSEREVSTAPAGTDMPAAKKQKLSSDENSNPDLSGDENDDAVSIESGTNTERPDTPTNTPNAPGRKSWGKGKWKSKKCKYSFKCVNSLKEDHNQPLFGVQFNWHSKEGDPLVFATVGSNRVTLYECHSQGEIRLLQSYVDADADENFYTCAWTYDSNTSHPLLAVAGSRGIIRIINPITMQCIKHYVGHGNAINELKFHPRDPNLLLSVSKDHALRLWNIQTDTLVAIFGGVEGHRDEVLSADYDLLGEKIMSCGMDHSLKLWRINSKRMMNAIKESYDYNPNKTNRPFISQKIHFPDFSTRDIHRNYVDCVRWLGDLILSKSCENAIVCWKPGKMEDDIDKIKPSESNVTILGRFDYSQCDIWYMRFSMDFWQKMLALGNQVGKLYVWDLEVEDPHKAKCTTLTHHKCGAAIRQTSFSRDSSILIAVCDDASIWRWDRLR
UniProt Q61188: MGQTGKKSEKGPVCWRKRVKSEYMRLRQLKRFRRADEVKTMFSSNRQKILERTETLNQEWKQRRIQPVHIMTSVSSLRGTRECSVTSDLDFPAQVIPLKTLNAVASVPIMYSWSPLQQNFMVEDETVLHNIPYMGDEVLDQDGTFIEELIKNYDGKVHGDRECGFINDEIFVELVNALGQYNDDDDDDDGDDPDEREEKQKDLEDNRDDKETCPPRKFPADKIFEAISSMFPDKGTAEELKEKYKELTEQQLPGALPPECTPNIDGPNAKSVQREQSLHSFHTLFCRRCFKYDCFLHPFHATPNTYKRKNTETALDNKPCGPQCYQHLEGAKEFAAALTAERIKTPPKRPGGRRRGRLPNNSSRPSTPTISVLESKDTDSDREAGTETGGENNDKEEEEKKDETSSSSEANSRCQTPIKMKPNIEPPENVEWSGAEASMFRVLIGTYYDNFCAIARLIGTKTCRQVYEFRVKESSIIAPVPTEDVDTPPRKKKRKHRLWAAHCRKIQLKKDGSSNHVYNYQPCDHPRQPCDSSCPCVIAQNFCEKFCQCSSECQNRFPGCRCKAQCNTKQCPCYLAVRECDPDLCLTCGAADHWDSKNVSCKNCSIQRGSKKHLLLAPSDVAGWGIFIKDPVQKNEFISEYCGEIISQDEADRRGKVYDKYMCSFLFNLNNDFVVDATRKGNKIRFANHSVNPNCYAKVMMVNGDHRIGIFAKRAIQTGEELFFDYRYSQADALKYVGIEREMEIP

Tests used:
[1] = biological target: Receptor for Activated C-kinase 7 (RACK7), endogenous mouse (mouse (endogenous in neonatal forebrain)) (UniProt A2A484); assay: co-IP; IP with 2 ug anti-RACK7 (control IgG beside it) and rProtein A/G beads from dialysed nuclear extract of WT neonatal mouse forebrain; wash buffer 50 mM Tris-HCl pH 7.9, 100 mM KCl, 0.1% NP-40; immunoblot
[2] = biological target: Suppressor of Zeste 12 homolog (SUZ12), endogenous mouse (mouse (endogenous in neonatal forebrain)) (UniProt Q80U70); assay: co-IP; IP with anti-SUZ12, anti-EZH2 or anti-EED antibodies from WT neonatal mouse forebrain; immunoblot for RACK7
[3] = biological target: embryonic ectoderm development (EED), endogenous mouse (mouse (endogenous in neonatal forebrain)) (UniProt Q921E6); assay: as above
[4] = biological target: Enhancer of Zeste Homolog 2 (EZH2), endogenous mouse (mouse (endogenous in neonatal forebrain)) (UniProt Q61188); assay: as above

Substance	binding [1]	binding [2]	binding [3]	binding [4]
Enhancer of Zeste Homolog 2 (EZH2), endogenous mouse (from UniProt Q61188 1-746)	binds			
Receptor for Activated C-kinase 7 (RACK7), endogenous mouse (from UniProt A2A484)		binds	binds	binds
embryonic ectoderm development (EED), endogenous mouse (from UniProt Q921E6 1-441)	binds			
Suppressor of Zeste 12 homolog (SUZ12), endogenous mouse (from UniProt Q80U70 1-741)	binds			

Results are given in words; binding and its absence hold for the method and conditions named. In cells and extracts the contact can be indirect. Binding can be weak; no strength is given.
